Data as given in the supplement of paper PMC10849652.
The other results are listed elsewhere or left out.

Amino acid sequences for entries named in this document (tags omitted). A change or cut given only in a name is not applied to a line headed by its entry.
UniProt Q96G28: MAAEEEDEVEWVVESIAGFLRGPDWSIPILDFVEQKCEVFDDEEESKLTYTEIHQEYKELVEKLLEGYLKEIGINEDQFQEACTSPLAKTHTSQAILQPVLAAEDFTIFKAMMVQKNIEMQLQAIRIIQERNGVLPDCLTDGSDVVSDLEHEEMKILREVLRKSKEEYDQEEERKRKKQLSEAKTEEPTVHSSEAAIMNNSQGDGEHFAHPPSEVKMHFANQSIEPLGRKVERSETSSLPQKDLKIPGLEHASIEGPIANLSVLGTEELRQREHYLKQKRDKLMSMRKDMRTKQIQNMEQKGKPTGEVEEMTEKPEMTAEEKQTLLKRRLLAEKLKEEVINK
UniProt Q9UQ88: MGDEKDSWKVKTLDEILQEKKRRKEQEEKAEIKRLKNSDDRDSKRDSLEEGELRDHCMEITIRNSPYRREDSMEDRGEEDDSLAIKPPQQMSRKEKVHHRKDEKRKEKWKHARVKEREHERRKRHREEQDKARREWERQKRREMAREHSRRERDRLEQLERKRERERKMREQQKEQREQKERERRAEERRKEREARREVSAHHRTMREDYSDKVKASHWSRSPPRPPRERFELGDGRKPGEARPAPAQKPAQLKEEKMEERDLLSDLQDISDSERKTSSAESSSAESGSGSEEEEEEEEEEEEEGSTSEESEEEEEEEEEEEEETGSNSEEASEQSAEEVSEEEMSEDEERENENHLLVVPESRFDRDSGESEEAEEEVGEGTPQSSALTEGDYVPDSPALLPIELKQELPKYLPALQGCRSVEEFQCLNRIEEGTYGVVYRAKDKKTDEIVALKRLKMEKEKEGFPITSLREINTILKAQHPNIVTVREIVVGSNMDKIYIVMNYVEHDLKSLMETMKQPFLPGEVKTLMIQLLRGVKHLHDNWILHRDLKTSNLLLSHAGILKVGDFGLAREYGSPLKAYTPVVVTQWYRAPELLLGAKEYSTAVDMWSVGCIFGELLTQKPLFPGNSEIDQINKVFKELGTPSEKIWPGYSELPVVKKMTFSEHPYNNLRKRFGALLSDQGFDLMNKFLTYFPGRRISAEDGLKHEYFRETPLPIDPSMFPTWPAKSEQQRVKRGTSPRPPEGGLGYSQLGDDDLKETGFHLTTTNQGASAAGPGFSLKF
UniProt Q14004, whole entry, looked up: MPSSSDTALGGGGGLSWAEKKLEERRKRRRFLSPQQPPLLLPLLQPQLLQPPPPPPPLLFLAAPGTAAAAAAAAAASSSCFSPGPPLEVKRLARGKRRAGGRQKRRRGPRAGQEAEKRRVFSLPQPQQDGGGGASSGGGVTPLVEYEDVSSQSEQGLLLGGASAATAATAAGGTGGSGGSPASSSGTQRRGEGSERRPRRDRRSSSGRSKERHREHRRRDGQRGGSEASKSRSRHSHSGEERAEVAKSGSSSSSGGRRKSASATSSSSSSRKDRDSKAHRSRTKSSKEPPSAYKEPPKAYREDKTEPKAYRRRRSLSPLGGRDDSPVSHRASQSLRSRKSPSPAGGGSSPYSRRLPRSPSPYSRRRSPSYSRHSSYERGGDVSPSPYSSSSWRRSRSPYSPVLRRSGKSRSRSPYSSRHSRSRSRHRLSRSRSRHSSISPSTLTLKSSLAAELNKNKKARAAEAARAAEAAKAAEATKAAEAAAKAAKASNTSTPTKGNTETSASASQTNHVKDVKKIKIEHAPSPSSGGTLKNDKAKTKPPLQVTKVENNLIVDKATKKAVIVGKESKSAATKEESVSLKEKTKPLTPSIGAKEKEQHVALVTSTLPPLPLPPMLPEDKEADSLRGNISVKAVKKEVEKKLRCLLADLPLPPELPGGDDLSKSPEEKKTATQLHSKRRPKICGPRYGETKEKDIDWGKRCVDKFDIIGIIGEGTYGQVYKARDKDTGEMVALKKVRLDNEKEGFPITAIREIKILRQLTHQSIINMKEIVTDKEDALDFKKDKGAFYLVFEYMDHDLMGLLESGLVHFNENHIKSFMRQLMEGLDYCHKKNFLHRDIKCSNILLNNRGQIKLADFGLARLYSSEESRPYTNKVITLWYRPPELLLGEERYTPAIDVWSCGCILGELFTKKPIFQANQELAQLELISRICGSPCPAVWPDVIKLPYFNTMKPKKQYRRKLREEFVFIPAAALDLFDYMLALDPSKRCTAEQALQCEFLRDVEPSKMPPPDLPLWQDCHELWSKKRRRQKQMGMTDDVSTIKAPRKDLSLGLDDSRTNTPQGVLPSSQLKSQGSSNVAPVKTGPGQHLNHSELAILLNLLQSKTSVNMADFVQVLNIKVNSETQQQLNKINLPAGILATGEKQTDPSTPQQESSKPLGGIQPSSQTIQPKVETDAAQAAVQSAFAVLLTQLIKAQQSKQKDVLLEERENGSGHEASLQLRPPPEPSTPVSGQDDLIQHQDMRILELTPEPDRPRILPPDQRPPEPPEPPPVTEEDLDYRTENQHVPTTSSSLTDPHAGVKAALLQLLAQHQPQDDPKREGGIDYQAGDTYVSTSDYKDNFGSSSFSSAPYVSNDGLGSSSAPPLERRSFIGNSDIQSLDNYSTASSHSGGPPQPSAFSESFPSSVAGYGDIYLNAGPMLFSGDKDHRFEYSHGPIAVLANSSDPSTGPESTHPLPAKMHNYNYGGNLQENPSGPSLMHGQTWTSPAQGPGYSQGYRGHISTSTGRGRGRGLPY
UniProt Q00535, whole entry, looked up: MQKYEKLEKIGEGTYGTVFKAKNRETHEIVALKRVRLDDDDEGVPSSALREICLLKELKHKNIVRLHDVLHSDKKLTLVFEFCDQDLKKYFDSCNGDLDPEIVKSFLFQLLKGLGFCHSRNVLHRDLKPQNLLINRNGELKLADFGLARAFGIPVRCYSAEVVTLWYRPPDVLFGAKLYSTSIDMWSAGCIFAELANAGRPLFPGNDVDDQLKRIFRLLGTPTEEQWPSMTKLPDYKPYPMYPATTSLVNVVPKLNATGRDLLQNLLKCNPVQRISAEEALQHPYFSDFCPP
UniProt Q9UHN6: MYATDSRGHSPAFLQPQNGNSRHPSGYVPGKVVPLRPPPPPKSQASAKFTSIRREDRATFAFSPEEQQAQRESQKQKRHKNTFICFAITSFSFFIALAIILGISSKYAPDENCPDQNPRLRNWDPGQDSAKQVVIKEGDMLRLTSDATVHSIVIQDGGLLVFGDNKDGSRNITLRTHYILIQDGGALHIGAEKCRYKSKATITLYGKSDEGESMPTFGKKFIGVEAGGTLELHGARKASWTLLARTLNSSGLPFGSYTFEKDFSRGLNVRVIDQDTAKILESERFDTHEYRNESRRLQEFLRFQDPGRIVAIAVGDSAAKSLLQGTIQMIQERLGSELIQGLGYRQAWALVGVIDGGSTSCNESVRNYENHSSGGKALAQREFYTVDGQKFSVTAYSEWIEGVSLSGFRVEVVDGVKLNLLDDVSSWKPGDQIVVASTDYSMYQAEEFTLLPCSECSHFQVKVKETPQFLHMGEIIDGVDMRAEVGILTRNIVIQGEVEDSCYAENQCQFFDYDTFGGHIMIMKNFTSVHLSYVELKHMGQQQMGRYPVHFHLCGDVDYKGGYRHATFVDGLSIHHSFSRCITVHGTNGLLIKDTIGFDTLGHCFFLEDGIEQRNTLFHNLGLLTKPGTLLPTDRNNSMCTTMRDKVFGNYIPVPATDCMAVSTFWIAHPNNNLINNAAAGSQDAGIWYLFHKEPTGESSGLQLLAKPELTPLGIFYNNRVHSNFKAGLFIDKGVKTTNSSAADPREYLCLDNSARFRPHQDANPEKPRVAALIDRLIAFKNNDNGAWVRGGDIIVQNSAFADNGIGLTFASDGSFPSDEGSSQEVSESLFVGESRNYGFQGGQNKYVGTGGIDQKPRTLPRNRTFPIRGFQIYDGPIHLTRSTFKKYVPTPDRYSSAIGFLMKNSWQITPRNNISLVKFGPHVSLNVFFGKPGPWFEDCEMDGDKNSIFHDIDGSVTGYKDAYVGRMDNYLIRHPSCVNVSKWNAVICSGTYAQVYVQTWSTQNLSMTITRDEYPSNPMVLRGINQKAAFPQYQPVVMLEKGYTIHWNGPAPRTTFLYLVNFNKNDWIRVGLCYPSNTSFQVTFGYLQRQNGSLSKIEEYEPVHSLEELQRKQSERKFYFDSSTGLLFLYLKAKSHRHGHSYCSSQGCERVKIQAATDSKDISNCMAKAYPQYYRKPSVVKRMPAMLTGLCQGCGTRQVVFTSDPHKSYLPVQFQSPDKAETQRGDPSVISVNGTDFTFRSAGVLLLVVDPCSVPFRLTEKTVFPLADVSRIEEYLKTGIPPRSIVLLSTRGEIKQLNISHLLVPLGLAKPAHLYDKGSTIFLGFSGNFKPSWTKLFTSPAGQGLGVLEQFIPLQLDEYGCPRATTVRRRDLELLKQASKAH
UniProt Q9NYV4, whole entry, looked up: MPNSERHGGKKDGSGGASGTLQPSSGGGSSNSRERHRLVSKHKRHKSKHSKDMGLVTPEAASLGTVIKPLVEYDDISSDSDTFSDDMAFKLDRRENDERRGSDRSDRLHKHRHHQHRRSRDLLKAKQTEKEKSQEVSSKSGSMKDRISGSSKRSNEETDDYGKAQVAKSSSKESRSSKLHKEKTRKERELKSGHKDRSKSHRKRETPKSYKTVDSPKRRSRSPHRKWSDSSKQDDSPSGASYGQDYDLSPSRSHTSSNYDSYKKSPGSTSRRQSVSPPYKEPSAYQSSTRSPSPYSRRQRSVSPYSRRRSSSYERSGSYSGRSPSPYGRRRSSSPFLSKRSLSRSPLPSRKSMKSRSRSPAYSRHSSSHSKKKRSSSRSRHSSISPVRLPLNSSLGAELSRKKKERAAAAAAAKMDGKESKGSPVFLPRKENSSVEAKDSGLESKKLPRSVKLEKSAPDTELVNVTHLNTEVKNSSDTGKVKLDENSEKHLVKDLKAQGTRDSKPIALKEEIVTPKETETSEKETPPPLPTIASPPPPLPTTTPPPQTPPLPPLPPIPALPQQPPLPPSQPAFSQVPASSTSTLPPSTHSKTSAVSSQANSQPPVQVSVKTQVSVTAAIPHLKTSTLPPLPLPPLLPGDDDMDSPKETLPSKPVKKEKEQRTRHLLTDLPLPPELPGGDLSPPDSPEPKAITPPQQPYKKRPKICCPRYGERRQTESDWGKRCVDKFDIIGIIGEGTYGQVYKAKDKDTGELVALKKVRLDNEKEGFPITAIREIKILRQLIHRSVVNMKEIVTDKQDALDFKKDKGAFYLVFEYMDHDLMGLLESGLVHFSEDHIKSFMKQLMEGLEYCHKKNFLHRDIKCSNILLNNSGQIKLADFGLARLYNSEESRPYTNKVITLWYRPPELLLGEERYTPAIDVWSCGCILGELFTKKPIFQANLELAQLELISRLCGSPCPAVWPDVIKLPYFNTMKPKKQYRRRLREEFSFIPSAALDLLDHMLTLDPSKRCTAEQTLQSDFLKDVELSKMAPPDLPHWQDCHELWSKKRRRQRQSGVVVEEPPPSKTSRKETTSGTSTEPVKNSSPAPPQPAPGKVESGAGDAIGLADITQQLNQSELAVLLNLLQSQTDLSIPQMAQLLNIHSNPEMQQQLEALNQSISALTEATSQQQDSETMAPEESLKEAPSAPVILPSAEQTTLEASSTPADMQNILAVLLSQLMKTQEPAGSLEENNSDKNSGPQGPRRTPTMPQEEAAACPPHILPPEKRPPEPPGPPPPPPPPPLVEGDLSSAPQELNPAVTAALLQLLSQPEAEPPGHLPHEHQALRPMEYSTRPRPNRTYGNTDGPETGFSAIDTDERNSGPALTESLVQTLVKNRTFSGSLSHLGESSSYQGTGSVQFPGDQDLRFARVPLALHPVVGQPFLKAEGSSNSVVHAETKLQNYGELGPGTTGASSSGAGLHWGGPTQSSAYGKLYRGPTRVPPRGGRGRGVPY
UniProt Q8N2Z9: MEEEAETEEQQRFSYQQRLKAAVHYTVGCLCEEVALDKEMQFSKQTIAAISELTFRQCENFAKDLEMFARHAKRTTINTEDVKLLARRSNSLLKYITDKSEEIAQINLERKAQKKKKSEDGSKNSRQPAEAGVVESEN

Tests used:
Assay in all cases: log2 fold change, soluble protein after heating vs DMSO (PISA); higher = thermal stabilisation; K562 lysate, 10 uM; active = over 0.2 and 3.5 SD of the protein, either way, in both replicates (recomputed)
[1] = compound: C1=CC=C(C=C1)[C@H](COC2=CC3=C(C=C2)NC(=O)N3)NC(=O)C4=CC=CN(C4=O)CC5=CC(=C(C=C5)F)F
Outline: (§1)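 To prepare the extract, K562 pellets were dounce-homogenised in PBS pH 7.4 with 1 mM MgCl2, giving crude material at 1 mg/mL protein. This was treated with 10 μM compound for 30 min, then heated in aliquots for 3 min over 48°C-58°C before pooling and addition of NP-40 to 0.5% at 4°C. Centrifugation at 21,000xg for 90 min left soluble protein in the supernatant, which TMTpro 16plex LC-MS/MS quantified with equalised channel sums. Results are log-two fold changes in thermal stability compared with solvent controls, from duplicates.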

[2] = compound: CC1=C(SC2=C1C(=N[C@H](C3=NN=C(N32)C)CC(=O)N)C4=CC=C(C=C4)Cl)C
Outline: as §1

[3] = compound: CC1=C2C(=CC=C1)N=C(N(C2=O)C3=CC=CC=C3C)CN4C=NC5=C(N=CN=C54)N
Outline: as §1

[4] = compound: Cc1sc2c(c1C)C(c1ccc(Cl)cc1)=N[C@@H](CC(=O)OC(C)(C)C)c1nnc(C)n1-2
Outline: as §1

[5] = compound: c1ccc([C@@H]2C[C@H]2NC2CCNCC2)cc1
Outline: as §1

Measured: log2 fold change

CEP250 (UniProt Q9BV73)
inactive: [1] 0.017 | [2] -0.002 | [3] 0.015 | [4] -0.024 | [5] -0.014

CFAP36 (UniProt Q96G28)
inactive: [1] 0.026 | [2] -0.017 | [3] 0.021 | [4] -0.01 | [5] 0.041

CDK11A (UniProt Q9UQ88)
inactive: [1] -0.046 | [2] 0.025 | [4] 0.091 | [5] 0

CDK13 (UniProt Q14004)
inactive: [1] -0.091 | [2] -0.031 | [3] -0.052 | [4] 0.049 | [5] 0.052

CDK5 (UniProt Q00535)
inactive: [1] -0.01 | [2] -0.03 | [3] -0.021 | [4] 0.002 | [5] -0.02

CDCP1 (UniProt Q9H5V8)
inactive: [1] 0.006 | [2] -0.015 | [3] -0.026 | [4] 0.028 | [5] -0.04

CEMIP2 (UniProt Q9UHN6)
inactive: [1] 0.202 | [2] -0.013 | [3] -0.023 | [4] -0.028 | [5] -0.001

CDK12 (UniProt Q9NYV4)
inactive: [1] -0.04 | [2] 0.032 | [3] -0.004 | [4] -0.025 | [5] -0.03

CENPS (UniProt Q8N2Z9)
inactive: [1] 0.061 | [2] -0.021 | [3] -0.035 | [4] -0.015 | [5] -0.108
